This assay deals with P388 leukemia ip, CD2F1 mice, survival T/C. The assay can be described thus: NCI In Vivo Anticancer Drug Screen. Data for tumor model P388 Leukemia (intraperitoneal) in CD2F1 (CDF1) mice. The note with it: T/C endpoint: median survival time, higher T/C = longer survival; for survivor count: dose: 1.6 mg/kg/injection.

Molecules are shown by their SMILES. The list does not hold the whole screen: it gathers tests that were run many times, whatever their T/C, doses with no T/C, and many T/C values between a quarter and a half above the control. Other doses and runs of a compound stand elsewhere. T/C gives the treated animals as a percentage of the vehicle group. Some doses have a count of surviving animals in place of a T/C: the source holds a T/C of zero for them, seemingly a mark for toxic or unscored doses. Some doses without a T/C left all or most animals alive at the check, yet need not have been tolerated: survival well below the control is almost never listed, so the zero probably covers shortened survival too. Counts of survivors are from the toxicity check (mostly the fifth day) where no day follows; animals may have died later. Schedules are NCI's codes, read here as Q, the interval in days (D) or hours (H), X, the number of doses. Some entries hold several experiments; their values stand side by side, smallest first. For survival time, the PubChem record calls one and a half times the control and up active, and a quarter to a half above the control has no call in these data; cut-offs in other NCI protocols can differ. Some T/C values carry the count of animals alive at the toxicity check (mostly the fifth day); where none is given, no animal had died by that day. Counts like (3×) count equal records among those shown.

As for `CC[C@]1(O)C[C@H]2CN(CCc3c([nH]c4ccccc34)[C@@](C(=O)OC)(c3cc4c(cc3OC)N(C=O)[C@H]3[C@@](O)(C(=O)OC)[C@H](OC(C)=O)[C@]5(CC)C=CCN6CC[C@]43[C@@H]65)C2)C1`, the T/C by setting is: (dose: 1.0 mg/kg/injection, schedule: Q04DX003 (ip), vehicle: saline, evaluated on day 40) 197 % of control; (dose: 1.0 mg/kg/injection, schedule: Q04DX003 (ip), vehicle: saline, evaluated on day 45) 170, 183, 186, 196 (2×), 197, 202, 206, 210, 213 (2×), 214, 220 (2×), 221, 231, 242, 253 % of control; (dose: 1.0 mg/kg/injection, schedule: Q04DX003 (ip), vehicle: saline, evaluated on day 56) 186 % of control; (dose: 1.0 mg/kg/injection, schedule: Q04DX003 (ip), vehicle: saline, evaluated on day 60) 157, 175, 191, 193, 205, 207, 212, 213 (2×), 216, 217, 218, 219, 221, 225, 227, 229, 231 (2×), 232, 234, 236, 245 % of control; (dose: 1.2 mg/kg/injection, schedule: Q04DX003 (ip), vehicle: saline, evaluated on day 6) 144 % of control; (dose: 1.2 mg/kg/injection, schedule: Q04DX003 (ip), vehicle: saline, evaluated on day 30) 198 [9 of 10 alive] and 204 % of control. The T/C runs as follows: (dose: 1.2 mg/kg/injection, schedule: Q04DX003 (ip), vehicle: saline, evaluated on day 45) 97, 192, 199, 216 % of control; (dose: 1.3 mg/kg/injection, schedule: Q01DX001 (ip), vehicle: saline) 136 % of control; (dose: 1.3 mg/kg/injection, schedule: Q04DX003 (ip), vehicle: saline) 161 (2×), 166 [8 of 9 alive], 178, 198, 203, 206, 228 % of control; (dose: 1.5 mg/kg/injection, schedule: Q04DX003 (ip), vehicle: saline, evaluated on day 5) 192, 208, 215, 236, 238 % of control; (dose: 1.5 mg/kg/injection, schedule: Q04DX003 (ip), vehicle: saline, evaluated on day 9) 144 and 178 % of control; (dose: 1.5 mg/kg/injection, schedule: Q04DX003 (ip), vehicle: saline, evaluated on day 20) 192 % of control. The T/C was 199 % of control (dose: 1.5 mg/kg/injection, schedule: Q04DX003 (ip), vehicle: saline, evaluated on day 23); 237 % of control (dose: 1.5 mg/kg/injection, schedule: Q04DX003 (ip), vehicle: saline, evaluated on day 29); 87, 113, 124, 127, 132, 153, 160, 169, 175, 181, 183, 189, 196, 198, 204, 205, 207, 208, 212, 215, 216, 219, 221, 224, 226, 228 (2×), 231, 235 (2×), 240, 268 % of control (dose: 1.5 mg/kg/injection, schedule: Q04DX003 (ip), vehicle: saline, evaluated on day 30, list 1 of 2); 107, 118, 126, 127, 141, 155, 169, 171, 178, 183, 187, 192, 197, 200, 204, 205, 207, 211, 213, 216, 218, 221 (2×), 224, 227, 228, 230, 235 (2×), 236 [9 of 10 alive], 265, 282 % of control (dose: 1.5 mg/kg/injection, schedule: Q04DX003 (ip), vehicle: saline, evaluated on day 30, list 2 of 2); 206 % of control (dose: 1.5 mg/kg/injection, schedule: Q04DX003 (ip), vehicle: saline, evaluated on day 40); 201, 204, 207, 211, 212 (2×), 216 (2×), 218, 219, 221, 222, 226 (2×), 231 [9 of 10 alive], 234, 240, 258 % of control (2×) (dose: 1.5 mg/kg/injection, schedule: Q04DX003 (ip), vehicle: saline, evaluated on day 45). Also, the T/C is, setting by setting: (dose: 1.5 mg/kg/injection, schedule: Q04DX003 (ip), vehicle: saline, evaluated on day 56) 212 % of control; (dose: 1.5 mg/kg/injection, schedule: Q04DX003 (ip), vehicle: saline, evaluated on day 60) 124, 178, 215, 216, 218, 222, 223, 233, 235 (2×), 236, 237, 239, 241 (2×), 241 [9 of 10 alive], 242, 245, 257, 261, 297, 380 % of control; (dose: 2.0 mg/kg/injection, schedule: Q01DX001 (ip), vehicle: saline, evaluated on day 5) 130, 135, 150, 169, 172, 173, 174 (2×), 178 % of control; (dose: 2.0 mg/kg/injection, schedule: Q01DX001 (ip), vehicle: saline, evaluated on day 30) 140, 150, 170 [4 of 5 alive], 175 % of control. Moreover, the survivor count reads like this: (schedule: Q01DX009 (ip), vehicle: saline) 2 of 6 and 3 of 6; (schedule: Q04DX003 (ip), vehicle: water) 6 of 6.

For the origin of these results see PubChem BioAssay AID330 (DTP/NCI, 2004).
